In patent publication US10207993B2 (priority 2014, dated 2019):
For at least one compound, name, drawing or mass did not settle the structure.

Amino acid sequences for entries named in this document (tags omitted). A change or cut given only in a name is not applied to a line headed by its entry.
UniProt Q8TDS4: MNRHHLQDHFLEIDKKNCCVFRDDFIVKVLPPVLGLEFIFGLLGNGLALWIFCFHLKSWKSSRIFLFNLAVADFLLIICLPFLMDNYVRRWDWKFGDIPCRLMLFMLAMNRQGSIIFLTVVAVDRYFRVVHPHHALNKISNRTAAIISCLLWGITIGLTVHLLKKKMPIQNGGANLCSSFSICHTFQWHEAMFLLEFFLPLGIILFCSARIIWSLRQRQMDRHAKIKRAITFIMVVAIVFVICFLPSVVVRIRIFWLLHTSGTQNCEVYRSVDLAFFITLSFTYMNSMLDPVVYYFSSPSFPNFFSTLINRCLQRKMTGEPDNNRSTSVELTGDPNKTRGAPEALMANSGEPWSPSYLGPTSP

Key:
[1] = system: M. tb strains [JAL2287, JAL2261, XDR]; assay type: cell-based, M. tuberculosis
M. tuberculosis H37Rv = assay type: cell-based
H37Rv-GFP = assay type: cell-based, M. tuberculosis
GPR109A [2] = target: T1, GPR109A (Homo sapiens, UniProt Q8TDS4); assay type: cell-based
GPR109A [3] = target: T1, GPR109A; assay type: cell-based; remark: listed apart in the source
[4] = system: 8 different strains of M. tuberculosis; assay type: cell-based
MDR-M. tb (JAL2287) = system: MDR-M. tb (JAL2287); design: species or system M. tuberculosis; conditions: in vivo

CO[C@@H](C(=O)NC1CCNCC1)c1ccccc1 [Compound 1085, (R)-2-Methoxy-2-phenyl-N-(piperidin-4-yl)acetamide]
inhibition of mycobacterial strains [1]: inhibited all the mycobacterial strains | effect on the activities of known anti TB antibiotics (M. tuberculosis H37Rv): does not negatively affect the activities of the known anti TB antibiotics | co localization of mycobacteria with degradative vesicles (co localization coefficient) (H37Rv-GFP): increased co localization of mycobacteria with these degradative vesicles | cellular lipid body (average fluorescent intensity) (GPR109A [2]): decrease in the cellular lipid body | inhibition of 3HBA activity on intracellular cAMP levels (GPR109A [3]): inhibits the activity in a dose dependent manner | mycobacterial load [4]: steady decrease in mycobacterial load with increase in concentration | efficacy in infected mice (MDR-M. tb (JAL2287)): effective at all experimental doses
